Measured data: PubChem BioAssay AID1259254 (NCATS, 2017)

- Test: 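Gene knock-downs that lead to re-replication, shown by excess G2 DNA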 (primary screen)
- System: human HCT116 colorectal cancer cells
- Reagent: single siRNA against human genes
- Duration: 3 days
- Measured: 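Nuclei stained with Hoechst and imaged; cell-cycle phase assigned by DNA content; G2 share scaled per plate, non-targeting siRNA 0%, GMNN siRNA 100%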
- Reading the numbers: G2 robust z-score and G2 cells, % of GMNN control: higher = more G2 cells, more excess DNA replication
- Hit rule: 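An siRNA counts as active if its G2 robust z-score lies at least 5 MADs above the screen median; here such calls match roughly 38% of GMNN control or more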
The whole screen tested about 59,000 reagents; below is an unselected part. Over the whole deposit, about 1,550 (2.6%) are marked active. 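G2 share is only a proxy for re-replication; each gene was hit by three separate siRNAs, and active genes were retested.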 A number with no mark means an inactive call. Reagents against one gene are numbered here. Further read-outs or replicates are left out here. Not given: the amount of reagent.

CHLSN (cholesin) #1 scored G2 robust z-score -0.536; G2 cells, % of GMNN control -0.801.
With knock-down of CHLSN (cholesin) #2, the record shows G2 robust z-score 1.86; G2 cells, % of GMNN control 16.1.
Against CHLSN (cholesin) #3, the entry reads G2 robust z-score 0.327; G2 cells, % of GMNN control 5.27.
For TREML1 (triggering receptor expressed on myeloid cells like 1) #1 the deposit lists G2 robust z-score 1.52; G2 cells, % of GMNN control 13.6.
For TREML1 (triggering receptor expressed on myeloid cells like 1) #2 the deposit lists G2 robust z-score 0.478; G2 cells, % of GMNN control 6.33.
Silencing of TREML1 (triggering receptor expressed on myeloid cells like 1) #3 gave: G2 robust z-score -0.0973; G2 cells, % of GMNN control 2.28.
Knock-down of ZBTB7C (zinc finger and BTB domain containing 7C) #1 came out at: G2 robust z-score 2.99; G2 cells, % of GMNN control 24.
Against ZBTB7C (zinc finger and BTB domain containing 7C) #2 the deposit lists G2 robust z-score -0.785; G2 cells, % of GMNN control -2.56.
Knock-down of ZBTB7C (zinc finger and BTB domain containing 7C) #3 resulted in: G2 robust z-score 0.648; G2 cells, % of GMNN control 7.53.
Silencing of TAT (tyrosine aminotransferase) #1 gave: G2 robust z-score -0.25; G2 cells, % of GMNN control 1.21.
TAT (tyrosine aminotransferase) #2 showed G2 robust z-score 0.781; G2 cells, % of GMNN control 8.46.
Against TAT (tyrosine aminotransferase) #3, the entry reads G2 robust z-score -0.481; G2 cells, % of GMNN control -0.414.
HSD17B12 (hydroxysteroid 17-beta dehydrogenase 12) #1 showed G2 robust z-score 0.305; G2 cells, % of GMNN control 5.11.
Against HSD17B12 (hydroxysteroid 17-beta dehydrogenase 12) #2 the deposit lists G2 robust z-score 1.25; G2 cells, % of GMNN control 11.7.
HSD17B12 (hydroxysteroid 17-beta dehydrogenase 12) #3 showed G2 robust z-score 0.259; G2 cells, % of GMNN control 4.79.
Against KIAA0513 #1, the values are G2 robust z-score -0.418; G2 cells, % of GMNN control 0.0273.
With knock-down of KIAA0513 #2, the screen gave G2 robust z-score 0.735; G2 cells, % of GMNN control 8.14.
After knock-down of KIAA0513 #3 the results were G2 robust z-score -0.0238; G2 cells, % of GMNN control 2.8.
Knock-down of TRIM25 (tripartite motif containing 25) #1 resulted in: G2 robust z-score 0.0418; G2 cells, % of GMNN control 3.26.
Knock-down of TRIM25 (tripartite motif containing 25) #2 came out at: G2 robust z-score 1.39; G2 cells, % of GMNN control 12.8.
Against TRIM25 (tripartite motif containing 25) #3, the values are G2 robust z-score 0.5; G2 cells, % of GMNN control 6.49.
ZNF514 (zinc finger protein 514) #1 scored G2 robust z-score -0.799; G2 cells, % of GMNN control -2.65.
Silencing of ZNF514 (zinc finger protein 514) #2 gave: G2 robust z-score 5.88 (active); G2 cells, % of GMNN control 44.3.
Depletion of ZNF514 (zinc finger protein 514) #3 gave: G2 robust z-score -0.105; G2 cells, % of GMNN control 2.23.

Called active, of those listed so far:
ZNF514 (zinc finger protein 514) #2 → G2 robust z-score: 5.88 (active); G2 cells, % of GMNN control: 44.3
